Results: PMC7475706
No constants are given. Whether binding was seen depends on the method and setting. Some binding calls cover weakened binding; strength is not graded here.

T1: ZED1 (Arabidopsis thaliana) (UniProt Q8LGB6)
T1 sequence: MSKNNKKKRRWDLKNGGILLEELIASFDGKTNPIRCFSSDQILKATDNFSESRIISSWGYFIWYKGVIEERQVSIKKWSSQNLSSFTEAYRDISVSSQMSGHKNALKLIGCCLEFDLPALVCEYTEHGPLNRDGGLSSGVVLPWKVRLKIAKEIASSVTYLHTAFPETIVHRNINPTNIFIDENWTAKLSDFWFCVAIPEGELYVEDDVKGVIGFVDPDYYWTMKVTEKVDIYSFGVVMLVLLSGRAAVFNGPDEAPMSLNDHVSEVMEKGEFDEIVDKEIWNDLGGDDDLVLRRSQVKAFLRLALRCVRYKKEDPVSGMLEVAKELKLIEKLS


Columns and labels:
[1] = biological target: T1, ZED1 (Arabidopsis thaliana); assay: two-hybrid; quantitative liquid culture beta-galactosidase assay (ONPG); ZED1 in pEG202, SZE1 in pJG4-5; without effector or with HopZ1a, HopX1i, HopX1i C198A, HopX1d or HopX1b (HO locus integration or pBA350V)
[2] = biological target: T1, ZED1 (Arabidopsis thaliana); assay: two-hybrid; ZED1 in pEG202, PBL kinase in pJG4-5, lacZ reporter pSH18-34; diploid yeast on X-gal reporter plates, 30°C, monitored 3 days; without effector, or with HopX1i or HopZ1a integrated at the HO locus (yeast three-hybrid)
[3] = biological target: T1, ZED1 (Arabidopsis thaliana); assay: two-hybrid; yeast three-hybrid on X-gal reporter plates; ZED1 in pEG202, PBL kinase in pJG4-5; HopZ1a integrated at the yeast HO locus
[4] = biological target: T1, ZED1 (Arabidopsis thaliana); assay: two-hybrid; yeast three-hybrid on X-gal reporter plates; ZED1 in pEG202, PBL kinase in pJG4-5; HopX1i integrated at the yeast HO locus

| Binder | binding [1] | binding [2] | binding [3] | binding [4] |
| --- | --- | --- | --- | --- |
| SZE1 (protein, UniProt Q8L617 1-313) MGNCLSASTLPTEPNAPKSVEEGVKVFTVADLKKATNDFGNQMELGESLGYINPKTLSPAKKGVGMAVAVKKIYLANEQAFQDWLVDVEFLRHNSHPSLVKLIGYCYDRDMLFIVSEYFPNGSLGSYISRDSRPKSLPWETRLKISIGAAQCLAFLHSRKQAGLYRRYLTASKILLDSDFNARVSYFGKPKVSLDELVYTIGFSNVAPRYQYPPPEYILSGMSNMAGDVYSFGVILLKMLTGLGKDLTISAKREIKNKKYNIVEMIDPDLKNSYPLEAGRLMCELIKQCLEVDPKMRPTMQEVLDNLNAIAQI | binds | binds | – | – |
| PBL15 (protein, UniProt Q9SY91 1-424) MRDSSTTASTKSSPLWKPFASNCCSVDDQTVFGNLSRCRPSRSEFSKNHLGPLPSFRRLSFADLSRSSSARINEDLAQTLGADLVDFQMCELKMITQSFSGNYLLGEGGFGKVYKGYVDDYLRQSLKAQPVAVKLLDIEGLQGHREWLSEVIFLGQLKHPNLVKLIGYCCEEEERVLIYEFMPRGSLENHLFRRISLSLPWATRLKIAVAAAKGLAFLHDLESPIIYRDFKTSNILLDSDFTAKLSDFGLAKMGPEGSKSHVTTRVMGTYGYAAPEYVSTGHLTTKSDVYSYGVVLLELLTGRRATEKSRPKNQQNIIDWSKPYLTSSRRLRCVMDPRLAGQYSVKAAKDTALLALQCVSPNPKDRPKMLAVVEALESLIHYKDMAVSSGHWPLSPKSQGGKVSPKVRGDHRSGRKSAPGSLRS | – | – | binds | no binding (condition: with HopX1i (without HopZ1a)) |
